# From the supplement of paper PMC8728848
# This is one part of the list.
# How the values were obtained:
# Assay in all cases: glycan array binding signal (z-score within array); higher = stronger binding
# Conditions in all cases: glycan notation: IUPAC condensed, linker removed
# [1] = biological target: GlcNAc(b1-3)Gal(b1-4)GlcNAc(b1-3)Gal(b1-4)GlcNAc(b1-3)Gal(b1-4)GlcNAc(b1-3)Gal(b1-4)GlcNAc(b1-2)[GlcNAc(b1-3)Gal(b1-4)GlcNAc(b1-3)Gal(b1-4)GlcNAc(b1-3)Gal(b1-4)GlcNAc(b1-3)Gal(b1-4)GlcNAc(b1-6)]Man(a1-6)[GlcNAc(b1-3)Gal(b1-4)GlcNAc(b1-3)Gal(b1-4)GlcNAc(b1-3)Gal(b1-4)GlcNAc(b1-3)Gal(b1-4)GlcNAc(b1-2)Man(a1-3)]Man(b1-4)GlcNAc(b1-4)[Fuc(a1-6)]GlcNAc
# Procedure, shortened: (§1)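 The Consortium for Functional Glycomics database supplied 3228 glycan arrays, of which those lacking an available protein sequence were dropped. The binding signal, a within-array Z-score, was averaged across arrays of the same protein sequence and across linkers. Negative scores can be read as non-binding.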
# [2] = biological target: GlcNAc(b1-3)Gal(b1-4)GlcNAc(b1-3)Gal(b1-4)GlcNAc(b1-3)GalNAc
# Procedure, shortened: as §1
# [3] = biological target: GlcNAc(b1-3)Gal(b1-4)GlcNAc(b1-3)GalNAc
# Procedure, shortened: as §1
# [4] = biological target: GlcNAc(b1-3)Gal(b1-4)GlcNAc(b1-3)[GlcNAc(b1-3)Gal(b1-4)GlcNAc(b1-3)]GalNAc
# Procedure, shortened: as §1
# [5] = biological target: GlcNAc(b1-3)Gal(b1-4)GlcNAc(b1-6)[Gal(b1-3)]GalNAc
# Procedure, shortened: as §1
# [6] = biological target: GlcNAc(b1-3)Gal(b1-4)GlcNAc(b1-6)[GlcNAc(b1-3)Gal(b1-3)]GalNAc
# Procedure, shortened: as §1
# [7] = biological target: GlcNAc(b1-3)Gal(b1-4)GlcNAc(b1-6)[GlcNAc(b1-3)]Gal(b1-4)GlcNAc
# Procedure, shortened: as §1
# [8] = biological target: GlcNAc(b1-3)GalNAc
# Procedure, shortened: as §1
# [9] = biological target: GlcNAc(b1-3)Man
# Procedure, shortened: as §1
# [10] = biological target: GlcNAc(b1-3)[GlcNAc(b1-4)][GlcNAc(b1-6)]GlcNAc
# Procedure, shortened: as §1
# [11] = biological target: GlcNAc(b1-3)[GlcNAc(b1-6)]Gal(b1-4)GlcNAc
# Procedure, shortened: as §1
# [12] = biological target: GlcNAc(b1-3)[GlcNAc(b1-6)]GalNAc
# Procedure, shortened: as §1
# [13] = biological target: GlcNAc(b1-4)Gal(b1-4)GlcNAc
# Procedure, shortened: as §1
# [14] = biological target: GlcNAc(b1-4)GlcNAc
# Procedure, shortened: as §1
# [15] = biological target: GlcNAc(b1-4)GlcNAc(b1-4)GlcNAc
# Procedure, shortened: as §1
# [16] = biological target: GlcNAc(b1-4)GlcNAc(b1-4)GlcNAc(b1-4)GlcNAc(b1-4)GlcNAc
# Procedure, shortened: as §1
# [17] = biological target: GlcNAc(b1-4)GlcNAc(b1-4)GlcNAc(b1-4)GlcNAc(b1-4)GlcNAc(b1-4)GlcNAc
# Procedure, shortened: as §1
# [18] = biological target: GlcNAc(b1-4)[GlcNAc(b1-6)]GalNAc
# Procedure, shortened: as §1
# [19] = biological target: GlcNAc(b1-6)Gal(b1-4)GlcNAc
# Procedure, shortened: as §1
# [20] = biological target: GlcNAc(b1-6)GalNAc
# Procedure, shortened: as §1
# [21] = biological target: GlcNAc6S(b1-3)Gal(b1-4)GlcNAc
# Procedure, shortened: as §1
# [22] = biological target: Kdn(a2-3)Gal(b1-3)GalNAc
# Procedure, shortened: as §1
# [23] = biological target: Kdn(a2-3)Gal(b1-3)GlcNAc
# Procedure, shortened: as §1
# [24] = biological target: Kdn(a2-3)Gal(b1-4)Glc
# Procedure, shortened: as §1
# [25] = biological target: Kdn(a2-3)Gal(b1-4)GlcNAc
# Procedure, shortened: as §1
# [26] = biological target: Kdn(a2-3)Gal(b1-4)[Fuc(a1-3)]GlcNAc
# Procedure, shortened: as §1
# [27] = biological target: Kdn(a2-6)Gal(b1-4)GlcNAc
# Procedure, shortened: as §1
# [28] = biological target: Man(a1-2)Man(a1-2)Man(a1-3)Man
# Procedure, shortened: as §1
# [29] = biological target: Man(a1-2)Man(a1-2)Man(a1-6)[Man(a1-3)]Man
# Procedure, shortened: as §1
# [30] = biological target: Man(a1-2)Man(a1-3)Man
# Procedure, shortened: as §1
# [31] = biological target: Man(a1-2)Man(a1-3)[Man(a1-2)Man(a1-6)]Man
# Procedure, shortened: as §1
# [32] = biological target: Man(a1-2)Man(a1-3)[Man(a1-2)Man(a1-6)]Man(a1-6)[Man(a1-2)Man(a1-2)Man(a1-3)]Man
# Procedure, shortened: as §1
# [33] = biological target: Man(a1-2)Man(a1-3)[Man(a1-2)Man(a1-6)]Man(a1-6)[Man(a1-2)Man(a1-2)Man(a1-3)]Man(b1-4)GlcNAc(b1-4)GlcNAc
# Procedure, shortened: as §1
# [34] = biological target: Man(a1-2)Man(a1-3)[Man(a1-6)]Man(a1-6)[Man(a1-2)Man(a1-3)]Man(b1-4)GlcNAc(b1-4)GlcNAc
# Procedure, shortened: as §1
# [35] = biological target: Man(a1-2)Man(a1-6)[Man(a1-3)]Man(a1-6)[Man(a1-2)Man(a1-2)Man(a1-3)]Man
# Procedure, shortened: as §1
# [36] = biological target: Man(a1-2)Man(a1-6)[Man(a1-3)]Man(a1-6)[Man(a1-2)Man(a1-2)Man(a1-3)]Man(b1-4)GlcNAc(b1-4)GlcNAc
# Procedure, shortened: as §1
# [37] = biological target: Man(a1-3)[Man(a1-6)]Man
# Procedure, shortened: as §1
# [38] = biological target: Man(a1-3)[Man(a1-6)]Man(a1-6)[Man(a1-2)Man(a1-3)]Man(b1-4)GlcNAc(b1-4)GlcNAc
# Procedure, shortened: as §1
# [39] = biological target: Man(a1-3)[Man(a1-6)]Man(a1-6)[Man(a1-3)]Man
# Procedure, shortened: as §1
# [40] = biological target: Man(a1-3)[Man(a1-6)]Man(a1-6)[Man(a1-3)]Man(b1-4)GlcNAc(b1-4)GlcNAc
# Procedure, shortened: as §1
# [41] = biological target: Man(a1-3)[Man(a1-6)]Man(b1-4)GlcNAc(b1-4)GlcNAc
# Procedure, shortened: as §1
# [42] = biological target: Man(a1-3)[Man(a1-6)]Man(b1-4)GlcNAc(b1-4)[Fuc(a1-6)]GlcNAc
# Procedure, shortened: as §1
# [43] = biological target: Man(a1-6)Man
# Procedure, shortened: as §1
# [44] = biological target: Man(b1-4)GlcNAc
# Procedure, shortened: as §1
# [45] = biological target: MurNAc(b1-4)GlcNAc
# Procedure, shortened: as §1
binder,measurement,setting,value
"Clec12b (Mus musculus), Q149M0 (protein) MSDEVTYATLMLQDSARVRGNQDGNNLRKEGHPAQSSLWRGAALSLMTLCLVLVTGLVTLATMFLQVSNDINSDSEKLSQLQKSIHPQQDNLSESLNSSRKSLTEESLQSQISALLERQEQMATKLCKEFLIHASDHKCNPCPKTWQWYGNSCYYFSINEEKSWSDSRKDCIDKNATLVKIDSTEERDLLQSQLSLTFSFFWLGLSWNSSGRNWLWEDGSFPPPTLFSDKELASFNGSRDCAYFERGNIYASRCSAEIPWICEKTASLVKTEDLD",glycan array binding signal (z-score),[1],-0.589
same,glycan array binding signal (z-score),[2],-0.622
same,glycan array binding signal (z-score),[3],-0.626
same,glycan array binding signal (z-score),[4],0.082
same,glycan array binding signal (z-score),[5],-0.645
same,glycan array binding signal (z-score),[6],-0.615
same,glycan array binding signal (z-score),[7],-0.621
same,glycan array binding signal (z-score),[8],0.303
same,glycan array binding signal (z-score),[9],-0.352
same,glycan array binding signal (z-score),[10],-0.245
same,glycan array binding signal (z-score),[11],-0.689
same,glycan array binding signal (z-score),[12],-0.524
same,glycan array binding signal (z-score),[13],-0.264
same,glycan array binding signal (z-score),[14],0.029
same,glycan array binding signal (z-score),[15],0.034
same,glycan array binding signal (z-score),[16],-0.504
same,glycan array binding signal (z-score),[17],-0.433
same,glycan array binding signal (z-score),[18],0.025
same,glycan array binding signal (z-score),[19],-0.193
same,glycan array binding signal (z-score),[20],-0.534
same,glycan array binding signal (z-score),[21],0.025
same,glycan array binding signal (z-score),[22],0.152
same,glycan array binding signal (z-score),[23],-0.7
same,glycan array binding signal (z-score),[24],-0.755
same,glycan array binding signal (z-score),[25],0.252
same,glycan array binding signal (z-score),[26],-0.268
same,glycan array binding signal (z-score),[27],-0.651
same,glycan array binding signal (z-score),[28],-0.401
same,glycan array binding signal (z-score),[29],-0.463
same,glycan array binding signal (z-score),[30],-0.099
same,glycan array binding signal (z-score),[31],-0.681
same,glycan array binding signal (z-score),[32],-0.118
same,glycan array binding signal (z-score),[33],-0.409
same,glycan array binding signal (z-score),[34],-0.283
same,glycan array binding signal (z-score),[35],-0.526
same,glycan array binding signal (z-score),[36],-0.428
same,glycan array binding signal (z-score),[37],0.423
same,glycan array binding signal (z-score),[38],-0.327
same,glycan array binding signal (z-score),[39],1.62
same,glycan array binding signal (z-score),[40],-0.663
same,glycan array binding signal (z-score),[41],0.135
same,glycan array binding signal (z-score),[42],-0.571
same,glycan array binding signal (z-score),[43],0.751
same,glycan array binding signal (z-score),[44],0.308
same,glycan array binding signal (z-score),[45],-0.784

# Quoted at random: 2 records from the list, in no set order.
binder,measurement,setting,value
"Clec12b (Mus musculus), Q149M0 (protein) MSDEVTYATLMLQDSARVRGNQDGNNLRKEGHPAQSSLWRGAALSLMTLCLVLVTGLVTLATMFLQVSNDINSDSEKLSQLQKSIHPQQDNLSESLNSSRKSLTEESLQSQISALLERQEQMATKLCKEFLIHASDHKCNPCPKTWQWYGNSCYYFSINEEKSWSDSRKDCIDKNATLVKIDSTEERDLLQSQLSLTFSFFWLGLSWNSSGRNWLWEDGSFPPPTLFSDKELASFNGSRDCAYFERGNIYASRCSAEIPWICEKTASLVKTEDLD",glycan array binding signal (z-score),[14],0.029
same,glycan array binding signal (z-score),[25],0.252
